Source: the supplement of paper PMC12819154, “High-throughput peptide-centric local stability assay extends protein–ligand identification to membrane proteins, tissues and bacteria” (Nature Structural & Molecular Biology, 2025)
The other results are listed elsewhere or left out. Most entries show no effect beyond the scatter of the controls.

Amino acid sequences for entries named in this document (tags omitted). A change or cut given only in a name is not applied to a line headed by its entry.
UniProt Q8VDR9: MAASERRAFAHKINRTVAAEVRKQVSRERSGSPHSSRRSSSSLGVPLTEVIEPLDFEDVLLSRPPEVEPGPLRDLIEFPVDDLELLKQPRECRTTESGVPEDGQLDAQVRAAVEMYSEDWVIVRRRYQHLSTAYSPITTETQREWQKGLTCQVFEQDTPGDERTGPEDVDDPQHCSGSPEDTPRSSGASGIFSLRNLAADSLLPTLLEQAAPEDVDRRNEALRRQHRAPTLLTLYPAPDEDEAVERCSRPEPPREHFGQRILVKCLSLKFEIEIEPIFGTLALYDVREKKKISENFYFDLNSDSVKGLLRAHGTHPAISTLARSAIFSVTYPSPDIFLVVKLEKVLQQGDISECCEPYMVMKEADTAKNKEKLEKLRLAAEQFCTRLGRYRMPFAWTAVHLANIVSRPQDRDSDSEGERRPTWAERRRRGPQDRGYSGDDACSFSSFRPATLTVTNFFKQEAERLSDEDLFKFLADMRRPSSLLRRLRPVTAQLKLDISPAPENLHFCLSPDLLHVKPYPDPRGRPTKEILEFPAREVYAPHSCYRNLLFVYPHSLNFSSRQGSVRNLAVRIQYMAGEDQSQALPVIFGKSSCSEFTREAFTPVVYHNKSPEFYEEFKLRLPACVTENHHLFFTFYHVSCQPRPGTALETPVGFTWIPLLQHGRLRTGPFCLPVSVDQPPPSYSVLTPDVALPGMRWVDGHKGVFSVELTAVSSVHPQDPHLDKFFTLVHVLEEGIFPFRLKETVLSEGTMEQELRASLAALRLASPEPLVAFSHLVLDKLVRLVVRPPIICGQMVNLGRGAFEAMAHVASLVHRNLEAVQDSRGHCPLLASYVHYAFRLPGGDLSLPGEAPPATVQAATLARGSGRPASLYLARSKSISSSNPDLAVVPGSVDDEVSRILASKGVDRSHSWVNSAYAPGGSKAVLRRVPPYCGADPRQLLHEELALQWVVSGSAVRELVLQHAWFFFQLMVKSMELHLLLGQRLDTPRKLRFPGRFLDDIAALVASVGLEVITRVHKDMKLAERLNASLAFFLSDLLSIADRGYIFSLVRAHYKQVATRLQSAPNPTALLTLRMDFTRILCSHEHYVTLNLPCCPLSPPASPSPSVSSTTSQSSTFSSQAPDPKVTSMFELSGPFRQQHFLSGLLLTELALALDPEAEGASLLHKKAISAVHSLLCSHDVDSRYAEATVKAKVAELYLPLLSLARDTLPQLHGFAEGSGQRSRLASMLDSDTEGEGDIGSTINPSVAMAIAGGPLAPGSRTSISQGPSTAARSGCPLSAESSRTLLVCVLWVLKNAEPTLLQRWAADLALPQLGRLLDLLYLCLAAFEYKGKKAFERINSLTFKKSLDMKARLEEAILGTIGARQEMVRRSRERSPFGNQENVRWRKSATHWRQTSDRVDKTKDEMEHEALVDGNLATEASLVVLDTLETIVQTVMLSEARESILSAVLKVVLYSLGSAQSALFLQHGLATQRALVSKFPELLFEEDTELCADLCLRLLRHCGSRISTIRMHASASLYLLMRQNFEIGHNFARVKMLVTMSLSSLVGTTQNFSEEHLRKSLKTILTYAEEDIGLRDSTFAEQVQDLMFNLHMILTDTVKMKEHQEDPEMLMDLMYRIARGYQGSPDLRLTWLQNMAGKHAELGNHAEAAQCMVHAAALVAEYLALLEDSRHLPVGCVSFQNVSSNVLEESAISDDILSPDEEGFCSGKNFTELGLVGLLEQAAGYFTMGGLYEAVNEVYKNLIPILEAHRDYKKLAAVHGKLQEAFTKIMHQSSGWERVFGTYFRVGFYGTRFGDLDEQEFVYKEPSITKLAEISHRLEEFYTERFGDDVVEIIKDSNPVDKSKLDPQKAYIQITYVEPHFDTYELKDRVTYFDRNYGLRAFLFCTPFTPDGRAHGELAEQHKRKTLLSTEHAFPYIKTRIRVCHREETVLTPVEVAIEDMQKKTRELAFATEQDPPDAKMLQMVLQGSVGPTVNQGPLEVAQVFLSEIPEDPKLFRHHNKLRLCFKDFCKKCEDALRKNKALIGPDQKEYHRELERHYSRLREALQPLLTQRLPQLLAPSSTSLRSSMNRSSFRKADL
UniProt Q8VEK0: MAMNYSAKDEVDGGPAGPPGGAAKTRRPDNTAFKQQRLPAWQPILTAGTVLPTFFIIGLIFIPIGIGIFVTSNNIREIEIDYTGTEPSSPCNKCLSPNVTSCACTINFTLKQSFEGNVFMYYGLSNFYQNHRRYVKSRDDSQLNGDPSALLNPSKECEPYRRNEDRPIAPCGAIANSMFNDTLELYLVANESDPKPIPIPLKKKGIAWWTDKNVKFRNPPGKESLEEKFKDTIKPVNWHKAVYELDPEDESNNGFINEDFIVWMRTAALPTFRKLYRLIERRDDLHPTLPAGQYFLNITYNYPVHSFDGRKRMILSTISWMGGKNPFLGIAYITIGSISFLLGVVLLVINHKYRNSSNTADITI
UniProt Q8VE22: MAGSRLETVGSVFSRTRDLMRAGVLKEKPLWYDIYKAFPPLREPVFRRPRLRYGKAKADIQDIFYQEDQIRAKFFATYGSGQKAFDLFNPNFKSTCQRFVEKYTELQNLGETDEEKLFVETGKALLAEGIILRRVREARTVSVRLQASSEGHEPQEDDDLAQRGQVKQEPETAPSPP
UniProt Q8R411: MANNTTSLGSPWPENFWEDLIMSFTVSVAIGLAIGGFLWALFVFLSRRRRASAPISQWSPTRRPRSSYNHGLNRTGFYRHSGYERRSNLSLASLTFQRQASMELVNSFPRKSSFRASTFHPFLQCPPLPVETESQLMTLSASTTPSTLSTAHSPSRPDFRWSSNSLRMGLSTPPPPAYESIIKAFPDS
UniProt Q8R2V2: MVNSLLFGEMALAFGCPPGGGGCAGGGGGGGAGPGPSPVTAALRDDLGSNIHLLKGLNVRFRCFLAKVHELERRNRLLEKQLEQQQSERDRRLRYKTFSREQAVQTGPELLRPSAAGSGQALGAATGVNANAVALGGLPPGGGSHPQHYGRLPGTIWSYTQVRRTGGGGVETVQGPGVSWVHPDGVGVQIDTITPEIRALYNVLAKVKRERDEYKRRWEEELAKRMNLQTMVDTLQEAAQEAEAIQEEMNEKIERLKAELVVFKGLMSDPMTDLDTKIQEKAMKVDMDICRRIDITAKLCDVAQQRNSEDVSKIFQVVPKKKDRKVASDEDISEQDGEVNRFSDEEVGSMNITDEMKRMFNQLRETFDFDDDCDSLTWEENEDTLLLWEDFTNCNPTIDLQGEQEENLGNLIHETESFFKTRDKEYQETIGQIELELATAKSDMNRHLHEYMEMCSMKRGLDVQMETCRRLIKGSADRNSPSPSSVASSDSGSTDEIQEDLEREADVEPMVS
UniProt Q8VCY6: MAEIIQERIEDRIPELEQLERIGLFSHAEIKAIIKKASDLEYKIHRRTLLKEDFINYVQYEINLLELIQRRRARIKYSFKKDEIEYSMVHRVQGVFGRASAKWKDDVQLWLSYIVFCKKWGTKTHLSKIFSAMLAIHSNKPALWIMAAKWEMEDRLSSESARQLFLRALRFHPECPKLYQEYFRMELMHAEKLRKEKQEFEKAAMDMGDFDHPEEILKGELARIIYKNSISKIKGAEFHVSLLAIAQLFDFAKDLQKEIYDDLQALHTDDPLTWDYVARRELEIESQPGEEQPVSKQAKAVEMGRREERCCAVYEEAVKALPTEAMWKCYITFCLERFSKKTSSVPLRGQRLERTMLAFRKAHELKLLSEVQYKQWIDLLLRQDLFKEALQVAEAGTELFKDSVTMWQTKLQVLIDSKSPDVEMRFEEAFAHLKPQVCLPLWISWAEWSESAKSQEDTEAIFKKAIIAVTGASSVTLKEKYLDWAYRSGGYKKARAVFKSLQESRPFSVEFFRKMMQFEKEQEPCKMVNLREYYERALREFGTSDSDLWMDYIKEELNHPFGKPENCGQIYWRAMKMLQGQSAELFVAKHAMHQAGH
UniProt Q8R322: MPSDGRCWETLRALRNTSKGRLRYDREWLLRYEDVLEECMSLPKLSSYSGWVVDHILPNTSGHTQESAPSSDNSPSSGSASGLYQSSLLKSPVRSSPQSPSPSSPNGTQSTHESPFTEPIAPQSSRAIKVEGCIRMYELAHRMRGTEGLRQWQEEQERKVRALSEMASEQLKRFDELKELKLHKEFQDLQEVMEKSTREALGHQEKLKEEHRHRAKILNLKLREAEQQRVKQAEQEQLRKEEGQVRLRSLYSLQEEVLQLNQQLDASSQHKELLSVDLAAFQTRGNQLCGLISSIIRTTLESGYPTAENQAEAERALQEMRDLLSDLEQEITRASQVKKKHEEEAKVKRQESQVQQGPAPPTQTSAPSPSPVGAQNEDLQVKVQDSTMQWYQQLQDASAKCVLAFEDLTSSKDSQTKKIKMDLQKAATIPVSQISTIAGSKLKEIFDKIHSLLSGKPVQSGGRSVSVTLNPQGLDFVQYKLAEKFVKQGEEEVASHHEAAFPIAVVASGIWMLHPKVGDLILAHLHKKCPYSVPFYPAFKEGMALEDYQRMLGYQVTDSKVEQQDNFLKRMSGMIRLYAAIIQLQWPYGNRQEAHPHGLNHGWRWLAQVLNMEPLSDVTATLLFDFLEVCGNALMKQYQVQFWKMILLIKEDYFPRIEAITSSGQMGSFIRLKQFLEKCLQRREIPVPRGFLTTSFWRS
UniProt Q8R2T8: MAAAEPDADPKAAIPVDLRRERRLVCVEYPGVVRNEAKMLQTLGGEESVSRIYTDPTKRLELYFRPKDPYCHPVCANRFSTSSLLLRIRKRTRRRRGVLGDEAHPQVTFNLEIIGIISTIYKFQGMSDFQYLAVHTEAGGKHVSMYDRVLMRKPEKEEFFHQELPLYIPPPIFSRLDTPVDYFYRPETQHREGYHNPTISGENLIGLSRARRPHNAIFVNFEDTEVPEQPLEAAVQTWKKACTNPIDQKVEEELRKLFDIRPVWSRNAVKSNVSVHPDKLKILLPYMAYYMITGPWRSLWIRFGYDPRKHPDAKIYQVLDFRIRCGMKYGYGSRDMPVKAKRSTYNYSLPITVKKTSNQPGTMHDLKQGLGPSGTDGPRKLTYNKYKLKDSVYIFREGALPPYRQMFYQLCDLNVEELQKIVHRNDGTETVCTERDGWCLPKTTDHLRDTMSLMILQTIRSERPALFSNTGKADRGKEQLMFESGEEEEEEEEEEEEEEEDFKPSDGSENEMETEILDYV
UniProt Q8VC16: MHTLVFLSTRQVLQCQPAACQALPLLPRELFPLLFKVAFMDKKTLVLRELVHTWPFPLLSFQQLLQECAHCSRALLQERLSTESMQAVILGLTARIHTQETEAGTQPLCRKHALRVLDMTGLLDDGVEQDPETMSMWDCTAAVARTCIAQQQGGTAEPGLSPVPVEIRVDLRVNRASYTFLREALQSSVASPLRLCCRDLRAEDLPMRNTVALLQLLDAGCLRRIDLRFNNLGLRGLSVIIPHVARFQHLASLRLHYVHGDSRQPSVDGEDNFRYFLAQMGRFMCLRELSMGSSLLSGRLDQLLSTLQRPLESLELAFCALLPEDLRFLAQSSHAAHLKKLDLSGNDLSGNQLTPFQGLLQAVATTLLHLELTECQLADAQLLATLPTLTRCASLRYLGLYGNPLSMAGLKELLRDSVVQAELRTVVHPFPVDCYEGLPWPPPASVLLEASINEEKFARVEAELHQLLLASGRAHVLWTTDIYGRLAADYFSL
UniProt Q8R3Q2: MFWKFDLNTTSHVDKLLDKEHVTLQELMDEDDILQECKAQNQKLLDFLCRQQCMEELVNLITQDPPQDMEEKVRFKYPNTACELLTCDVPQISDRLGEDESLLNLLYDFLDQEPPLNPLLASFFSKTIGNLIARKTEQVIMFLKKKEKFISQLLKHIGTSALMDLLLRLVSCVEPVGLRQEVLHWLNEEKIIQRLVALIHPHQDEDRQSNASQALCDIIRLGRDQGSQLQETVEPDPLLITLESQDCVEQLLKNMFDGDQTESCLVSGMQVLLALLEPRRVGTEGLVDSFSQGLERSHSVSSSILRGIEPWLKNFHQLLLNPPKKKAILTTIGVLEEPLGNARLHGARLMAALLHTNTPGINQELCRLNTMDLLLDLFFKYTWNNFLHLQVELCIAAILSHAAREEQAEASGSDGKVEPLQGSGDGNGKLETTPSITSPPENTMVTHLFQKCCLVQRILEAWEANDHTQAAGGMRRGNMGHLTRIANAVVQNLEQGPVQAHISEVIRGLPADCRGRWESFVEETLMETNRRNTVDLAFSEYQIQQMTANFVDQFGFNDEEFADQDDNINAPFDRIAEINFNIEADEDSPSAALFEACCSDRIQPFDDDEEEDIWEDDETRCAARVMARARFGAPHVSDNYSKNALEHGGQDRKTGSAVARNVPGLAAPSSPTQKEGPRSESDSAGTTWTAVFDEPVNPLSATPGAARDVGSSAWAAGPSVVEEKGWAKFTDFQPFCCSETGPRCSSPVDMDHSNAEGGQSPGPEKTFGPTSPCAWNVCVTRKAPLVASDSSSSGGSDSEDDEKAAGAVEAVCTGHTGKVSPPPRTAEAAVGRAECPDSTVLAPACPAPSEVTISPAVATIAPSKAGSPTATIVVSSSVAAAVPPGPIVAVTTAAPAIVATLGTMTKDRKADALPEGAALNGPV

What follows are targets tested with CN[C@@H]1C[C@H]2O[C@@](C)([C@@H]1OC)n1c3ccccc3c3c4c(c5c6ccccc6n2c5c31)C(=O)NC4 [staurosporine] (assay: log2 fold change of tryptic peptide abundance, ligand vs vehicle (limited proteolysis) (log2 ratio); higher = more trypsin-susceptible (destabilized)). Conditions: ligand concentration: 20 uM; sample: mouse liver crude lysate; replicate design: treated separately.

Target | log2 fold change
UniProt Q8VE94 (peptide sequence: ETEATWTK, peptide start residue: 153) | -0.174
UniProt Q8VCI7 (peptide sequence: VTPWLAQASK, peptide start residue: 226) | -0.0785
UniProt Q8VDH1 (peptide sequence: EGIDQSYQLLR, peptide start residue: 399) | -0.371
UniProt Q8VDG7 (peptide sequence: AILAFLQK, peptide start residue: 350) | -0.618
UniProt Q8VDR9 (peptide sequence: INSLTFKK, peptide start residue: 1339) | 0.41
UniProt Q8R3T5 (peptide sequence: SQWMLEQLR, peptide start residue: 78) | -0.211
UniProt Q8VCF1 (peptide sequence: PIQPFDQR, peptide start residue: 2) | -0.053
UniProt Q8VCB1 (peptide sequence: MYSSYSVEPK, peptide start residue: 394) | -0.201
UniProt Q8VDG3 (peptide sequence: CPVTIPEDQKK, peptide start residue: 162) | -0.336
UniProt Q8VEK0 (peptide sequence: TAALPTFR, peptide start residue: 266) | -0.4
UniProt Q8R5C5 (peptide sequence: GLLTIRYPMEHGVVR, peptide start residue: 67) | -0.101
UniProt Q8VD04 (peptide sequence: QLKEGVPGAAGAHVDGELLR, peptide start residue: 116) | 0.678
UniProt Q8VE22 (peptide sequence: FFATYGSGQK, peptide start residue: 74) | -0.0808
UniProt Q8R411 (peptide sequence: SSYNHGLNR, peptide start residue: 66) | -0.158
UniProt Q8R3K3 (peptide sequence: LKEFQHK, peptide start residue: 48) | -0.169
UniProt Q8R316 (peptide sequence: LDHPFYVK, peptide start residue: 298) | 0.522

Target | log2 fold change
UniProt Q8VDQ8 (peptide sequence: ELEDLVR, peptide start residue: 340) | -0.492
UniProt Q8R2V2 (peptide sequence: DDLGSNIHLLK, peptide start residue: 45) | 0.376
UniProt Q8VCL2 (peptide sequence: HWAGQGQR, peptide start residue: 34) | 0.161
UniProt Q8VEG0 (peptide sequence: TVQAQASQTLIK, peptide start residue: 261) | 0.205
UniProt Q8VCY6 (peptide sequence: KDEIEYSMVHR, peptide start residue: 81) | 0.111
UniProt Q8VDG6 (peptide sequence: ALAAAASDPR, peptide start residue: 197) | -1.47
UniProt Q8R322 (peptide sequence: VGDLILAHLHKK, peptide start residue: 517) | 0.506
UniProt Q8VE73 (peptide sequence: TLHLTVLR, peptide start residue: 660) | 0.221
UniProt Q8VE19 (peptide sequence: AVQGVTVDPYFHDR, peptide start residue: 226) | -0.493
UniProt Q8R2T8 (peptide sequence: SNVSVHPDKLK, peptide start residue: 271) | 1.36
UniProt Q8R4C2 (peptide sequence: QLNSTVSSLHSR, peptide start residue: 215) | 0.166
UniProt Q8VC16 (peptide sequence: MHTLVFLSTR, peptide start residue: 1) | 0.312
UniProt Q8VCX5 (peptide sequence: KVMEYENR, peptide start residue: 112) | -0.201
UniProt Q8R3Q2 (peptide sequence: LLDFLCR, peptide start residue: 44) | -0.242
UniProt Q8R3Q0 (peptide sequence: TASGYGGTR, peptide start residue: 324) | 0.0264
UniProt Q8VCI5 (peptide sequence: YQQQHSVMVK, peptide start residue: 218) | 0.256

As a working copy, some entries already given.
Target | log2 fold change
UniProt Q8R3Q2 (peptide sequence: LLDFLCR, peptide start residue: 44) | -0.242
UniProt Q8R3Q0 (peptide sequence: TASGYGGTR, peptide start residue: 324) | 0.0264
